# Reference: patent US20060258716A1, “Methods and compositions for the treatment of helicobacter pylori-associated diseases using endoperoxide bridge-containing compounds” (priority 2003, published 2006)
# Some results were stated once for a whole list of compounds, not compound by compound.
# System: H. pylori
# Experiment: Growth inhibition of H. pylori (MIC), growth monitored by spectrophotometer
# Assay type: cell-based
# Details: Example 4, FIG. 4
# Experimental: (§1) To test the effect of artemisinin on the growth of H. pylori, freshly prepared bacteria were exposed to various concentrations of artemisinin. Bacteria were grown for fixed incubation times and their growth levels were monitored using a spectrophotometer. The growth of treated bacteria was compared to that of non-treated bacteria.
# as §1, with “effectivity” for “effect”, “artemisinin derivatives” for “artemisinin”, “artemisinin derivatives.” for “artemisinin.”
smiles,measurement,value
C[C@H]1[C@@H](O)O[C@@H]2O[C@@]3(C)CC[C@H]4[C@H](C)CC[C@@H]1[C@@]24OO3 [dihydroartemisinin],minimal inhibitory concentration (MIC),1.25 to 2.5 µM
